Experimental data as given in PubChem BioAssay AID624291 (National Center for Advancing Translational Sciences (NCATS), 2012).
In all, about 350,000 compounds went through this assay and about 220 (0.063%) were called active. The inconclusive results got no clear call from the source; some entries with a clear call stand among them for comparison. Calls follow the shape of the dose curve; as a rule, active = well fitted activation curve with a large enough effect; inconclusive = small, poorly fitted or top-dose-only effect; inactive = no such curve, though single readings can be large or run the other way. Potencies beside an inconclusive call are fits to weak or partial responses and may not hold up.

assay: qHTS for Activators of Integrin-Mediated Alleviation for Muscular Dystrophy; details: alpha7betagal myoblasts, beta-gal FDG fluorescence, 48 h; activation: at 38.3 µM (top of the series); also: nearly all actives have a fitted effect of over 60% in size;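 as to activation: 100% = response of the positive control SU9516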
Procedure, shortened: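 alpha7betagal+/- myoblasts (passage 13, 250/well) treated 48 h at 37C with compounds at 1:260 dilution of DMSO stock. Lysed, then beta-galactosidase activity read as FDG fluorescence (ex 480/em 540) after 30 min, with pre-read for autofluorescence.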
Potency is read from the fitted curve at half-maximal effect.

Compound | Potency | activation
O=[N+]([O-])c1ccc(C2=Nn3cnnc3SC2)cc1 | inconclusive: 3.55 µM [activator, single point] | 
CCCCNC(=O)CSc1nc2ccsc2c(=O)n1CCCC(=O)NCCc1ccc(S(N)(=O)=O)cc1 | inconclusive: 2.82 µM [activator, single point] | 
Cc1cc(C)c(OCC(=O)Nc2ccccc2N2CCOCC2)c(C)c1 | inconclusive: 3.55 µM [activator, single point] | 
COc1cc(/C=C2\SC(=S)N(N3CCOCC3)C2=O)ccc1O | inconclusive: 11.2 µM [activator, single point] | 
O=C(O)CCCC(=O)Nc1cc([N+](=O)[O-])ccc1O | inconclusive: 14.1 µM [activator, single point] | 
NC(=O)C1CN(C(=O)c2cccc(S(=O)(=O)N3CCc4ccccc43)c2)c2ccccc2O1 (centres undefined) | inconclusive: 3.16 µM [activator, single point] | 
COc1ccc(NC(=O)c2cc(C)on2)cc1OC | inactive | 
Nc1ccc(CSc2ccc(Cl)cc2)cc1 | inconclusive: 1.12 µM [activator, partial curve, poor fit] | 
CCN1C(=O)C(CC(=O)Nc2ccc(OC)cc2)N(CCc2ccc(F)cc2)C1=S (centres undefined) | inactive | 
C=C1CCN([C@@H](Cc2ccccc2)C(=O)O)S(=O)(=O)c2ccccc21 | inconclusive: 28.2 µM [activator, single point] | 
CC1(C)Cc2c(cnn2-c2cccc(F)c2)C(NC(=O)CCN2CCCC2=O)C1 (centres undefined) | inconclusive: 8.91 µM [activator, partial curve, poor fit] | 
O=C(CSc1ccccc1)N1CCC(N2CCC(C(=O)N3CCCC3)CC2)CC1 | inconclusive: 28.2 µM [activator, single point] | 
O=C(O)CN1C(=O)/C(=C/c2ccccc2Cl)Oc2ccccc21 | inconclusive: 12.6 µM [activator, single point] | 
Cc1nc(/C(N)=N/OC(=O)c2cccc(Cl)c2)c(C(F)(F)F)o1 | inconclusive: 8.91 µM [activator, single point] | 
Cc1ccnc(NC(=O)c2ccc(Cl)c(NC(=O)c3ccccc3C)c2)c1 | inactive | 
O=C(/C(=N/O)c1ccccc1)c1ccccc1 | inconclusive: 5.01 µM [activator, single point] | 
CCCCc1cc(=O)oc2c(C)c(OCC(=O)NCc3ccccn3)ccc12 | inconclusive: 5.01 µM [activator, single point] | 
COc1ccc(C(=O)COC(=O)c2cc3ccccc3oc2=O)c(OC)c1 | inconclusive: 0.282 µM [activator, full curve, poor fit] | 
COc1ccc(CN2CCN(C(C)C(=O)N(C)Cc3cccc(F)c3)CC2)cc1OC (centres undefined) | inactive | 
O=C(OC1CCOC1=O)c1cc(Cl)ccc1[N+](=O)[O-] (centres undefined) | inconclusive: 5.62 µM [activator, partial curve, poor fit] | 
CCCCN1/C(=C/c2ccc3ccccc3[n+]2CC)Sc2ccccc21 |  | inconclusive: -56% [activator]
CC(=O)c1ccc(OCCCC(=O)Nc2cc(S(=O)(=O)N3CCCCC3)ccc2C)cc1 | inactive | 
Cc1cc(NC(=O)c2ccco2)ccc1NC(=O)c1ccco1 | inconclusive: 2.82 µM [activator, partial curve, poor fit] | 

Compound | Potency | activation
COC(=O)c1cc(S(=O)(=O)N2CCN(c3ccc([N+](=O)[O-])cc3)CC2)c[nH]1 | inconclusive: 31.6 µM [activator, single point] | 
COc1ccc2cc(C(=O)N3CCN(c4ccccc4OC)CC3)[nH]c2c1 | inconclusive: 2.51 µM [activator, single point] | 
CC(C)c1ccc(C2OCCCO2)cc1 | inconclusive: 28.2 µM [activator, single point] | 
O=C(C1CCC(CNS(=O)(=O)c2cccc3nsnc23)CC1)N1CCN(c2ccccn2)CC1 (centres undefined) | inactive | 
COc1cc2nc(NCCCN3CCN(C)CC3)n3nc(-c4ccccc4)nc3c2cc1OC | inactive | 
O=C(O)c1cc(S(=O)(=O)Nc2ccc(OCc3ccccc3)cc2)ccc1Br | inconclusive: 2.82 µM [activator, single point] | 
O=C(Nc1ccc2c(c1)OCCO2)c1ccccc1 | inconclusive: 22.4 µM [activator, single point] | 
COc1ccc(S(=O)(=O)NCC(=O)N(CC(=O)NCc2ccccc2)Cc2ccco2)cc1 | inconclusive: 2.24 µM [activator, partial curve, poor fit] | 
NC(=O)Nc1ccc(C(=O)OCC(=O)Nc2cccc(S(=O)(=O)NC3=NCCCCC3)c2)cc1 | inconclusive: 1.58 µM [activator, partial curve, poor fit] | 
CN(Cc1cccs1)C(=O)Cc1csc(-c2ccccc2)n1 | inconclusive: 4.47 µM [activator, single point] | 
C=CCSc1nnc(-c2ccc([N+](=O)[O-])cc2)o1 | inactive | 
COc1ccc(CNC(=O)c2ccc(-c3ccccc3)cc2)cc1OC | inconclusive: 5.01 µM [activator, single point] | 
NNC(=O)CSc1c(-c2cccs2)[nH]c2ccccc12 | inconclusive: 28.2 µM [activator, single point] | 
CCn1ccc(C(=O)Nc2ccsc2C(=O)OC)n1 | inconclusive: 3.16 µM [activator, single point] | 
O=C(Nc1ccccc1)Oc1cccc(Br)c1 | inactive | 
COc1ccc(S(=O)(=O)N2CCCCCC2)cc1C(=O)NCc1cccs1 | inconclusive: 3.16 µM [activator, partial curve, poor fit] | 
O=C(Cc1c(F)cccc1Cl)Nc1ccc(-n2cnnn2)cc1 | inconclusive: 5.01 µM [activator, single point] | 
CCOC(=O)c1ccc(NC(=S)N2CCCC2)cc1 | inconclusive: 3.16 µM [activator, partial curve, poor fit] | 
COc1ccc2[nH]c(=O)c(CN(C(=O)c3ccccn3)c3ccccc3)cc2c1 | inactive | 
CN1C[C@@H]2[C@@H]3C(=O)N(C)C(=O)[C@@H]3[C@](C)(C1=O)N2C(=O)c1ccc(Br)cc1 | inactive | 
CCN1CCN(C(=O)COCc2cc(-c3ccc4c(c3)OCO4)on2)CC1 | inconclusive: 5.01 µM [activator, single point] | 
CCOc1ccc(N(CC(=O)Nc2ccccc2F)S(=O)(=O)c2c(C)[nH]c(=O)[nH]c2=O)cc1 | inconclusive: 10 µM [activator, partial curve, poor fit] | 
C=CCc1cccc(/C=N/NC(=O)c2ccccc2OC)c1O | inactive | 

Compound | Potency | activation
CCOc1ccc(OCC)c(S(=O)(=O)NCCOC23CC4CC(CC(C4)C2)C3)c1 | inactive | 
Cc1ccccc1CS(=O)(=O)c1ncc(Cl)c(C(=O)Nc2ccc(F)cc2)n1 | inactive | 
Cc1cc(C)[n+]2n1C(=O)C(c1ccccc1)=C2[O-] | inactive | 
NC(=O)c1nn(CC(=O)Nc2ccc3c(c2)OCO3)cc1[N+](=O)[O-] | inconclusive: 28.2 µM [activator, single point] | 
O=C(Nc1cccc(Cl)c1)Nc1cnccn1 | inconclusive: 5.01 µM [activator, single point] | 
CC(=O)NCCc1ccc(C(=O)CSc2nnc(C3CC3)n2C2CC2)cc1 | inconclusive: 28.2 µM [activator, single point] | 
C=CCN1CCN(C(=O)c2c(-c3ccccc3)noc2C)CC1 | inconclusive: 5.01 µM [activator, single point] | 
Cc1ccc(NS(=O)(=O)c2ccc(N3CCN(c4ccc(O)cc4)CC3)c([N+](=O)[O-])c2)c(C)c1 | inactive | 
O=C(c1ccccc1SCc1ccc(F)cc1)N1CCOCC1 | inconclusive: 3.16 µM [activator, single point] | 
O=C(NCc1ccco1)/C(=C\c1cccs1)NC(=O)c1cccs1 | inconclusive: 5.01 µM [activator, single point] | 
COc1ccc(F)c(CN2CCC(n3nccc3NC(=O)C3CCOC3)CC2)c1 (centres undefined) | inactive | 
C=CCn1c(CSCc2ccc(Cl)cc2Cl)nnc1SCC(=O)Nc1ccc(C(=O)O)cc1 | inconclusive: 5.01 µM [activator, single point] | 
Nc1cccc(/C=C/C(=O)O)c1 | inconclusive: 8.91 µM [activator, partial curve, poor fit] | 
O=C(CNC(=O)c1ccccc1Cl)c1ccccc1 | inconclusive: 2.51 µM [activator, single point] | 
COCCNC(=O)c1cc(-c2ccccc2OC)on1 | inactive | 
Cc1cccc2cc(COC(=O)COc3ccccc3)c(=O)[nH]c12 | inactive | 
c1ccc2c(N3CCCCC3)nc(N3CCCC3)nc2c1 | inactive | 
Oc1csc(Cc2nc(-c3ccccc3F)cs2)n1 | inconclusive: 5.01 µM [activator, single point] | 
Cc1ccc(C)c(S(=O)(=O)N2CCN(C(=O)CCCc3c[nH]c4ccccc34)CC2)c1 | inactive | 
Cc1ccc(S(=O)(=O)N(Cc2cccc(Cl)c2)C(=O)N2CCN(C)CC2)cc1 | inactive | 
CCOc1cc(C(C(=O)NCC2CCCO2)N(C(=O)Cn2nnc3ccccc32)c2ccc(C(C)=O)cc2)ccc1O (centres undefined) | inconclusive: 28.2 µM [activator, single point] | 
Cc1cc(=O)n2nc(N3CCCC(C(=O)NCc4ccc(F)cc4)C3)sc2n1 (centres undefined) | inconclusive: 0.501 µM [activator, full curve, poor fit] | 
CCOC(=O)/C(=N/Nc1ccc(OC)cc1)Sc1nnc(CCc2ccccc2)n1-c1ccccc1 | inactive | 

Rewritten tab-delimited: part of the list above.
Compound	Potency	activation
C=C1CCN([C@@H](Cc2ccccc2)C(=O)O)S(=O)(=O)c2ccccc21	inconclusive: 28.2 µM [activator, single point]	
CC1(C)Cc2c(cnn2-c2cccc(F)c2)C(NC(=O)CCN2CCCC2=O)C1 (centres undefined)	inconclusive: 8.91 µM [activator, partial curve, poor fit]	
O=C(CSc1ccccc1)N1CCC(N2CCC(C(=O)N3CCCC3)CC2)CC1	inconclusive: 28.2 µM [activator, single point]	
O=C(O)CN1C(=O)/C(=C/c2ccccc2Cl)Oc2ccccc21	inconclusive: 12.6 µM [activator, single point]	
Cc1nc(/C(N)=N/OC(=O)c2cccc(Cl)c2)c(C(F)(F)F)o1	inconclusive: 8.91 µM [activator, single point]	
Cc1ccnc(NC(=O)c2ccc(Cl)c(NC(=O)c3ccccc3C)c2)c1	inactive	
